Measured values published in paper PMC8476571.
Changes are numbered by the printed parent chain. Numbers in names are those of the source. No constants are given. Whether binding was seen depends on the method and setting. Some binding calls cover weakened binding; strength is not graded here. Tags and fused reporters may be left off the sequences shown.

T1: Lactococcus lactis Csm2 (LlCsm2) with N-terminal His6-tag (Lactococcus lactis) (UniProt L0CFW2)
T1 sequence: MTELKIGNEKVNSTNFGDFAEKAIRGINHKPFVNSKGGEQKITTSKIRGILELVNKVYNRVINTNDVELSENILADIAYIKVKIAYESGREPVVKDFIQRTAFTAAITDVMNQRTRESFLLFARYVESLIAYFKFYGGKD

B1: Lactococcus lactis Csm3 (LlCsm3) (enzyme, UniProt L0CEA3 1-214)
chain: MKLVIEGTIVLKTGMHIGGSSDFSAIGAVDSPVVRDTLTRLPLIPGSSLKGKMRYLLAKELNNGILLNEPNNDQDEILRLFGSSEKDKIRRARLKFNDIKLSNLAELETFNVSSTEVKFENTINRKTAVANPRQIERVIAGSKFDFEIFYNLDDIKEVEKDFENIKQGFDLLEFDYLGGHGTRGSGRIAFENLSVITAVGNFEKINTLNEILGA
B2: Lactococcus lactis Csm3 D30A (enzyme, UniProt L0CEA3 1-214)
chain: B1 chain with D30A

Molecular target: T1, Lactococcus lactis Csm2 (LlCsm2) with N-terminal His6-tag (Lactococcus lactis)
Test: co-purification (Ni-NTA affinity, then size exclusion); all Csm subunits and the crRNA co-expressed in E. coli from one plasmid; complex isolated by the N-terminal His6-tag on LlCsm2; size-exclusion column in 20 mM HEPES pH 7.5, 200 mM NaCl, 5 mM MgCl2, 14 mM 2-mercaptoethanol; the complex is a ribonucleoprotein with crRNA

| Binder | binding |
| --- | --- |
| B1 | binds |
| B2 | binds |
